Experiment [1] concerns the target GST-talin R8 (1,453–1,580) K1530E/K1544E (2E) (UniProt P26039). Put plainly: pull-down; HEK293 cells co-transfected with paxillin-DDK and GST-R8 (wild type or mutants); GST pull-down.
The target of experiment [2] is GST-talin R8 (amino acids 1,453–1,580), wild type (UniProt P26039). The experiment is described as above.

The chains behind the UniProt entries cited, without tags or fusion partners. Where a name states a change or a piece, a line headed by the entry shows the natural chain unless it says otherwise. A line that says so, or that is headed by a name, gives the form on record, which may keep a tag or linker. Residues count along the entry.
GST-talin R8 (amino acids 1,453–1,580), wild type (P26039, residues 1453-1580): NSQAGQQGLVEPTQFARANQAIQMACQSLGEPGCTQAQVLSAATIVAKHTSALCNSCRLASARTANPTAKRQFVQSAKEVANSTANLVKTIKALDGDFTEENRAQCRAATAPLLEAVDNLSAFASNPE
GST-talin R8 (1,453–1,580) K1530E/K1544E (2E) (P26039, form named): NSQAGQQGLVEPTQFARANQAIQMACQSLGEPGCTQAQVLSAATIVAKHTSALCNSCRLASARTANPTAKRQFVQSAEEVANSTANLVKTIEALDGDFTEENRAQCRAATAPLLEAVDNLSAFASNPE
UniProt P49023: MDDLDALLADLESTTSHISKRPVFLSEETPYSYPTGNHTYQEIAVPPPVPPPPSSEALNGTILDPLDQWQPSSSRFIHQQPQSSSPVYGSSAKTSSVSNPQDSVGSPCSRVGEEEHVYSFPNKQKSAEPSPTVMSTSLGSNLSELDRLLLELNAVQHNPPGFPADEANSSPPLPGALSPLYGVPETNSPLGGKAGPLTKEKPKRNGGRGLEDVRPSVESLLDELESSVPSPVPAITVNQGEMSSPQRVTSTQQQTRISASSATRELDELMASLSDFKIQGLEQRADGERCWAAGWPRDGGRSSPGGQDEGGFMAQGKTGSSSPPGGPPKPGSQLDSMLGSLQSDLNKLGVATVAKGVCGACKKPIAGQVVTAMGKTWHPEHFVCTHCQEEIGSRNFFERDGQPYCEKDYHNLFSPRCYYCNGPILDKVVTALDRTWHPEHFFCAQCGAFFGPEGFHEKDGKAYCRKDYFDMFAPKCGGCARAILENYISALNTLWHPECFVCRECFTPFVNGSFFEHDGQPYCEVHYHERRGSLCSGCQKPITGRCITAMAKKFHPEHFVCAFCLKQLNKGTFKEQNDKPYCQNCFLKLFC

These are yes or no findings as the source states them, for the method shown. Binding seen in cells or lysates may run through a third protein. Some binding calls cover weakened binding; strength is not graded here.

For “paxillin-DDK (from UniProt P49023 1-591)”, the binding entry in experiment [1] and in experiment [2] was “binds” each time.

For the origin of these results see PMC4938799, “LD Motif Recognition by Talin: Structure of the Talin-DLC1 Complex” (Structure(London, England:1993), 2016).
